Experimental data reported in patent publication US10093699B2, “Peptides with antimicrobial, anticancer and/or wound-healing promoting activities, pharmaceutical compositions containing the same, and use of the peptides with antimicrobial, anticancer and/or wound-healing promoting activities” (priority 2015, dated 2018).
At least one peptide structure holds a part that was inferred or is arguable (an end, a ring closure or a residue). Where a SMILES comes first, the peptide text is derived from it. [ ]: non-standard residue; d: D form. 2Nal = N[C@@H](Cc1ccc2ccccc2c1)C(=O)O

Tested on: Gram-positive and Gram-negative bacterium
Test: Antimicrobial activity under several salt concentrations (summary in words)
Format: cell-based
Details: for antimicrobial activities in high-salt conditions: addition of 100 or 200 mM NaCl; for effectiveness against bacterium: LYM broth condition
Procedure: Escherichia coli strain (ATCC 25922), Staphylococcus aureus subsp strain (ATCC 25923, methicillin-resistant), and Pseudomonas aeruginosa Migula strain (ATCC 27853, ampicillin-resistant) were used to test the antibacterial activity of the peptides. Bacteria were cultured in sterilized Mueller-Hinton (MH) culturing medium at 200 rpm and 37° C. for 8 hours.
The antibacterial activities were determined by the standard broth microdilution method of National Committee for Clinical Laboratory Standards with the LYM broth. The LYM broth contains 5.4 mM KCl, 5.6 mM Na2HPO4, 0.5 mM MgSO4, and 1.0 mM sodium citrate. In addition, 0.4 mg of ZnCl2, 2.0 mg of FeCl3. 6H2O, 0.1 mg of CuSO4. 5H2O, 0.1 mg of MnSO4.H2O, 0.1 mg of Na2B4O7.10H2O, 700 mg of amino acid mixtures without tryptophan (Clontech), and 20 mg of L-Tryptophan were added per liter of medium. A vitamin mixture (100×, Sigma) and glucose at final concentration of 2% were also added.
1 μl peptide solutions (ranging from 5000 μg/ml to 78 μg/ml in serial dilution) was prepared and mixed with 99 μl inoculum (5×10^5 CFU/ml) in polypropylene 96-well plate. The turbidity at OD 600 nm was measured by ELISA plate reader (Thermo Max, Molecular Devices, Sunnyvale, Calif.). The absorbance of culture medium and inoculum suspension without peptides were used as the negative and positive control, respectively. The minimum inhibitory concentration (MIC) value is the lowest concentration of peptide at which there is no obvious growth (equal or more than 90%). […] All peptides were tested in triplicate.
The activities of S1 peptide and its analogs were tested against Gram-positive and Gram-negative bacterium under several salt concentrations.

Molecule	antimicrobial activities in high-salt conditions	effectiveness against bacterium
CC(=O)N[C@@H](CCCCN)C(=O)N[C@@H](CCCCN)C(=O)N[C@@H](CCCCN)C(=O)N[C@@H](CCCCN)C(=O)N[C@@H](CCCCN)C(=O)N[C@@H](CCCCN)C(=O)N[C@@H](Cc1ccc2ccccc2c1)C(=O)N[C@@H](Cc1ccc2ccccc2c1)C(=O)N[C@@H](CCCCN)C(=O)N[C@@H](CCCCN)C(=O)N[C@@H](Cc1c[nH]c2ccccc12)C(=O)N[C@@H](CCCNC(=N)N)C(=O)N[C@@H](CCCCN)C(=O)N[C@@H](Cc1c[nH]c2ccccc12)C(=O)N[C@@H](CC(C)C)C(=O)N[C@@H](C)C(=O)N[C@@H](CCCCN)C(=O)N[C@@H](CCCCN)C(N)=O [K6-Nal2-S1, Ac-KKKKKK-Nal-Nal-KKWRKWLAKK-NH2] (Ac-KKKKKK[2Nal][2Nal]KKWRKWLAKK-NH2)	diminished	
CC(=O)N[C@@H](Cc1ccc2ccccc2c1)C(=O)N[C@@H](Cc1ccc2ccccc2c1)C(=O)N[C@@H](CCCCN)C(=O)N[C@@H](CCCCN)C(=O)N[C@@H](Cc1c[nH]c2ccccc12)C(=O)N[C@@H](CCCNC(=N)N)C(=O)N[C@@H](CCCCN)C(=O)N[C@@H](Cc1c[nH]c2ccccc12)C(=O)N[C@@H](CC(C)C)C(=O)N[C@@H](C)C(=O)N[C@@H](CCCCN)C(=O)N[C@@H](CCCCN)C(N)=O [Nal2-S1, Ac-Nal-Nal-KKWRKWLAKK-NH2] (Ac-[2Nal][2Nal]KKWRKWLAKK-NH2)	promising activities	very effective
Ac-KKWRKWLAKK-NH2 [S1, Ac-KKWRKWLAKK-NH2, reference compound]		very effective
